From article PMC10645592
No constants are given. Whether binding was seen depends on the method and setting. Binding seen in cells or lysates may run through a third protein. These calls come from enrichment with a bait or labelling near it, and not all partners need be listed.

Amino acid sequences for entries named in this document (tags omitted). Residues count along the entry.
UniProt Q9FIH8, residues 144-1265: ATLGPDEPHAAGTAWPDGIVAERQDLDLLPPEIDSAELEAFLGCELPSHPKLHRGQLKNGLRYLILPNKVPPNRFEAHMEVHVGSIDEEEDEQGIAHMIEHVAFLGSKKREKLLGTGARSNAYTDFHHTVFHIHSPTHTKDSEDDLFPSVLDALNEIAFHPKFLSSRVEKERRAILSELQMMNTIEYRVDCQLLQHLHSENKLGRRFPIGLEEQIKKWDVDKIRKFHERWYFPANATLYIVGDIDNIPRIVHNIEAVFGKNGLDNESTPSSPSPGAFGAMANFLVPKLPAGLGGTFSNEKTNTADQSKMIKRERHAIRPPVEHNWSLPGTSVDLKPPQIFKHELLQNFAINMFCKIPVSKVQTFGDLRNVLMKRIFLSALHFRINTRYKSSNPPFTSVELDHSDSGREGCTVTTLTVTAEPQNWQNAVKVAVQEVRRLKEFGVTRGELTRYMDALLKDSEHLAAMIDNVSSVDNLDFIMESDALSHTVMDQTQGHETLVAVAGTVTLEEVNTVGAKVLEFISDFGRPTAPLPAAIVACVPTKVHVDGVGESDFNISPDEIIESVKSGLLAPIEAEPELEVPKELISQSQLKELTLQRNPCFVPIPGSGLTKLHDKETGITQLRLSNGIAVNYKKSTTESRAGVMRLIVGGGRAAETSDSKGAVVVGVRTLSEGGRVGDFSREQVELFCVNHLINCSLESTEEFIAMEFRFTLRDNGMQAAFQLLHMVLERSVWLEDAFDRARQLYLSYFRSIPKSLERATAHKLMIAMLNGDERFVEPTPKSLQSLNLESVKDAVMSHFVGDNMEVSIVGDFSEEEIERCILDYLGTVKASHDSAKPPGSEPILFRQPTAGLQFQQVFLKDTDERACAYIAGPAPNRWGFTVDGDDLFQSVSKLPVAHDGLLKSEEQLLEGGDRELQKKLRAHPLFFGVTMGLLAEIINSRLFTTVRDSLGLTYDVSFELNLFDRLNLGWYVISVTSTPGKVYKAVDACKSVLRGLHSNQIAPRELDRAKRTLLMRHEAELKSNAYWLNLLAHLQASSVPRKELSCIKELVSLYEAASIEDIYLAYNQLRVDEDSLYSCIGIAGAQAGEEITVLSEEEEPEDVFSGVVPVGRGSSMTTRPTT
UniProt Q13200: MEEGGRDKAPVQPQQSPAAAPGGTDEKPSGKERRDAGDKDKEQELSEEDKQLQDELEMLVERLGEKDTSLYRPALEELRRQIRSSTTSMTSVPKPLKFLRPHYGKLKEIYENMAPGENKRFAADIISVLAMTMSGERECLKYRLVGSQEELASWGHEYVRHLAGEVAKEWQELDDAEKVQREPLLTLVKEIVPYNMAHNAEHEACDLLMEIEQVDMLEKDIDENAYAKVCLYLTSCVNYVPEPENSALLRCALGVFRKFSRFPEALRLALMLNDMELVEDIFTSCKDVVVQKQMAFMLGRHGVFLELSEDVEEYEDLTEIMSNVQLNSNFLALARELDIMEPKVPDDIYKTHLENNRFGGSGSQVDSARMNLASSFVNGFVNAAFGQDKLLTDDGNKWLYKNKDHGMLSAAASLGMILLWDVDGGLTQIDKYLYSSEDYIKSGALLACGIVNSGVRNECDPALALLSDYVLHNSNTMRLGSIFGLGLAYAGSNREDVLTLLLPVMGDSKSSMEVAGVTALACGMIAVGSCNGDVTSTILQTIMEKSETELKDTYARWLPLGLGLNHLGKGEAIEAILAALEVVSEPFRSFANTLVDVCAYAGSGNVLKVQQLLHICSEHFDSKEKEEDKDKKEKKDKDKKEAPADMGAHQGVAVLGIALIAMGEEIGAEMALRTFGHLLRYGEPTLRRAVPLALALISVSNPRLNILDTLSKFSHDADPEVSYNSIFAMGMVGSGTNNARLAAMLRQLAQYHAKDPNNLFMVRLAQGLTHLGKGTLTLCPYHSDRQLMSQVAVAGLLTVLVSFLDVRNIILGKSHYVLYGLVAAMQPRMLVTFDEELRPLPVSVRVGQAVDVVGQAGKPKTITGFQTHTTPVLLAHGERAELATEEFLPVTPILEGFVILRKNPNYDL
UniProt Q15365: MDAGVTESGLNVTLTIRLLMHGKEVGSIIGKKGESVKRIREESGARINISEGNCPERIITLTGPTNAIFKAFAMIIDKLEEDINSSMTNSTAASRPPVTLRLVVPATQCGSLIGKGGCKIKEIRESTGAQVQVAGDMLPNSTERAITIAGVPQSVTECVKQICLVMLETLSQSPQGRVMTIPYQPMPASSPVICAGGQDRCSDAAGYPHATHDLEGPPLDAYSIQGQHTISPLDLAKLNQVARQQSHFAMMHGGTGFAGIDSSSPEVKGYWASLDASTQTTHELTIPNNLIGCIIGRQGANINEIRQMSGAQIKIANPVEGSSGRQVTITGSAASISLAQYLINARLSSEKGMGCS

B1: DDX24 (protein, UniProt Q9GZR7 1-859)
chain: MKLKDTKSRPKQSSCGKFQTKGIKVVGKWKEVKIDPNMFADGQMDDLVCFEELTDYQLVSPAKNPSSLFSKEAPKRKAQAVSEEEEEEEGKSSSPKKKIKLKKSKNVATEGTSTQKEFEVKDPELEAQGDDMVCDDPEAGEMTSENLVQTAPKKKKNKGKKGLEPSQSTAAKVPKKAKTWIPEVHDQKADVSAWKDLFVPRPVLRALSFLGFSAPTPIQALTLAPAIRDKLDILGAAETGSGKTLAFAIPMIHAVLQWQKRNAAPPPSNTEAPPGETRTEAGAETRSPGKAEAESDALPDDTVIESEALPSDIAAEARAKTGGTVSDQALLFGDDDAGEGPSSLIREKPVPKQNENEEENLDKEQTGNLKQELDDKSATCKAYPKRPLLGLVLTPTRELAVQVKQHIDAVARFTGIKTAILVGGMSTQKQQRMLNRRPEIVVATPGRLWELIKEKHYHLRNLRQLRCLVVDEADRMVEKGHFAELSQLLEMLNDSQYNPKRQTLVFSATLTLVHQAPARILHKKHTKKMDKTAKLDLLMQKIGMRGKPKVIDLTRNEATVETLTETKIHCETDEKDFYLYYFLMQYPGRSLVFANSISCIKRLSGLLKVLDIMPLTLHACMHQKQRLRNLEQFARLEDCVLLATDVAARGLDIPKVQHVIHYQVPRTSEIYVHRSGRTARATNEGLSLMLIGPEDVINFKKIYKTLKKDEDIPLFPVQTKYMDVVKERIRLARQIEKSEYRNFQACLHNSWIEQAAAALEIELEEDMYKGGKADQQEERRRQKQMKVLKKELRHLLSQPLFTESQKTKYPTQSGKPPLLVSAPSKSESALSCLSKQKKKKTKKPKEPQPEQPQPSTSAN
B2: C7orf50 (protein, UniProt Q9BRJ6 1-194)
chain: MAKQKRKVPEVTEKKNKKLKKASAEGPLLGPEAAPSGEGAGSKGEAVLRPGLDAEPELSPEEQRVLERKLKKERKKEERQRLREAGLVAQHPPARRSGAELALDYLCRWAQKHKNWRFQKTRQTWLLLHMYDSDKVPDEHFSTLLAYLEGLQGRARELTVQKAEALMRELDEEGSDPPLPGRAQRIRQVLQLLS
B3: SMC1A (protein, UniProt Q14683 1-1233)
chain: MGFLKLIEIENFKSYKGRQIIGPFQRFTAIIGPNGSGKSNLMDAISFVLGEKTSNLRVKTLRDLIHGAPVGKPAANRAFVSMVYSEEGAEDRTFARVIVGGSSEYKINNKVVQLHEYSEELEKLGILIKARNFLVFQGAVESIAMKNPKERTALFEEISRSGELAQEYDKRKKEMVKAEEDTQFNYHRKKNIAAERKEAKQEKEEADRYQRLKDEVVRAQVQLQLFKLYHNEVEIEKLNKELASKNKEIEKDKKRMDKVEDELKEKKKELGKMMREQQQIEKEIKEKDSELNQKRPQYIKAKENTSHKIKKLEAAKKSLQNAQKHYKKRKGDMDELEKEMLSVEKARQEFEERMEEESQSQGRDLTLEENQVKKYHRLKEEASKRAATLAQELEKFNRDQKADQDRLDLEERKKVETEAKIKQKLREIEENQKRIEKLEEYITTSKQSLEEQKKLEGELTEEVEMAKRRIDEINKELNQVMEQLGDARIDRQESSRQQRKAEIMESIKRLYPGSVYGRLIDLCQPTQKKYQIAVTKVLGKNMDAIIVDSEKTGRDCIQYIKEQRGEPETFLPLDYLEVKPTDEKLRELKGAKLVIDVIRYEPPHIKKALQYACGNALVCDNVEDARRIAFGGHQRHKTVALDGTLFQKSGVISGGASDLKAKARRWDEKAVDKLKEKKERLTEELKEQMKAKRKEAELRQVQSQAHGLQMRLKYSQSDLEQTKTRHLALNLQEKSKLESELANFGPRINDIKRIIQSREREMKDLKEKMNQVEDEVFEEFCREIGVRNIREFEEEKVKRQNEIAKKRLEFENQKTRLGIQLDFEKNQLKEDQDKVHMWEQTVKKDENEIEKLKKEEQRHMKIIDETMAQLQDLKNQHLAKKSEVNDKNHEMEEIRKKLGGANKEMTHLQKEVTAIETKLEQKRSDRHNLLQACKMQDIKLPLSKGTMDDISQEEGSSQGEDSVSGSQRISSIYAREALIEIDYGDLCEDLKDAQAEEEIKQEMNTLQQKLNEQQSVLQRIAAPNMKAMEKLESVRDKFQETSDEFEAARKRAKKAKQAFEQIKKERFDRFNACFESVATNIDEIYKALSRNSSAQAFLGPENPEEPYLDGINYNCVAPGKRFRPMDNLSGGEKTVAALALLFAIHSYKPAPFFVLDEIDAALDNTNIGKVANYIKEQSTCNFQAIVISLKEEFYTKAESLIGVYPEQGDCVISKVLTFDLTKYPDANPNPNEQ
B4: SNRNP27 (protein, UniProt Q8WVK2 1-155)
chain: MGRSRSRSPRRERRRSRSTSRERERRRRERSRSRERDRRRSRSRSPHRRRSRSPRRHRSTSPSPSRLKERRDEEKKETKETKSKERQITEEDLEGKTEEEIEMMKLMGFASFDSTKGKKVDGSVNAYAINVSQKRKYRQYMNRKGGFNRPLDFIA

molecular target: synthetic SPP (without chloroplast transit peptide and human codon optimized) fused to green fluorescent protein (GFP) in the N terminus (A. thaliana) (UniProt Q9FIH8); test: affinity purification with mass spectrometry; anti-GFP antibody with lysate of HEK293 cells expressing GFP-SPP compared with cells expressing control GFP (modified RIPA buffer: 50 mM Tris-HCl pH 7.4, 150 mM NaCl, 0.25% DOC, 1% IgPal), µMACS Micro Beads, label-free quantification, FDR < 0.05, n = 3

binding, binds:
SLBP (from UniProt Q14493 1-270)
proteasome subunit PSMD2 (from UniProt Q13200 1-908)
PCBP1 (from UniProt Q15365 1-356)
proteasome subunit PSMC4 (from UniProt P43686 1-418)
MRPL28 (from UniProt Q13084 56-256)
B1
B2
B3
B4
